Values from PubChem BioAssay AID504764 (Drosophila RNAi Screening Center, 2011).
The deposit covers about 22,000 reagents; this is a random part of those that have a named target and a result. Over the whole deposit, 403 (1.9%) were called active. 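Unnormalised raw counts per well; ratio z-scores behind the hit calls and whether each hit raises or lowers signal are not deposited.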 A number with no mark means an inactive call. Reagents against one gene are numbered here. A plus sign joins genes that one reagent is predicted to hit. The record does not give: the amount of reagent.

Aim: 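Genome-wide screen for regulators of Notch-driven gene expression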 (primary screen)
System: Drosophila Kc167 cells
Knock-down reagent: long dsRNA against Drosophila genes
Duration: about 5 days (4 days dsRNA, then 24 h after transfection)
Treatment: transfection of constitutively active membrane-tethered Notch lacking the extracellular domain, read 24 h later
Read-out: 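Firefly luciferase from an E(spl)m3 reporter with active Notch, plus control-promoter and uninduced reporter wells for normalisation; unnormalised counts, duplicate wells a and b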
Direction: induced reporter light, run 1, well a and induced reporter light, run 1, well b: higher = more light from the Notch target reporter with active Notch; control promoter light, run 1, well a and control promoter light, run 1, well b: higher = more light from the viral control promoter (cell number, transfection, viability); uninduced reporter light, run 1, well a: higher = more light from the Notch target reporter without active Notch
Hit rule: 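Hit if the duplicate-averaged log2 ratio of induced to control-promoter light gives a plate-wise z beyond ±2, or induced to uninduced beyond ±1.8; weak-control or discordant-duplicate wells dropped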
Calls: active = modifier hit (raised or lowered Notch signal); inactive = not a hit

induced reporter light, run 1, well a	induced reporter light, run 1, well b	control promoter light, run 1, well a	control promoter light, run 1, well b	uninduced reporter light, run 1, well a	target gene	reagent no.
76060	85745	88805	96340	8695	Obp47b + CG7741	1
1.89e5	1.49e5	1.65e5	1.86e5	10755	CG14309	1
2.07e5	1.74e5	1.94e5	2.53e5	17590	PGRP-SC2	1
1.49e5	1.62e5	1.95e5	2.06e5	11910	Nil	1
1.18e5	1.10e5	1.99e5	2.65e5	9220	ci	1
2.05e5	1.66e5	2.44e5	2.59e5	20715	CG32121	1
40470	40805	43595	53020	2670	CG15673	1
1.88e5	1.79e5	2.05e5	2.02e5	13142	meigo	1
1.57e5	1.63e5	1.84e5	2.21e5	18780	CG17612	1
1.40e5	1.37e5	2.03e5	1.71e5	10180	CG14262	1
1.71e5	1.85e5	2.02e5	2.38e5	20790	HGTX	1
1.34e5	1.19e5	1.76e5	1.77e5	6282	HGTX	2
64285	81635	1.02e5	61745	4270	pps	1
1.41e5	1.75e5	2.67e5	2.44e5	10240	CG12491 + CG34105	1
1.50e5	1.30e5	1.60e5	1.27e5	10400	CG12491 + CG34105	2
1.04e5	1.22e5	1.96e5	2.46e5	8810	CG11368	1
1.11e5	1.08e5	1.41e5	1.37e5	11140	Ugt303B3	1
1.17e5	1.14e5	91415	62655	8750	CG6325	1
2.37e5	1.87e5	2.42e5	2.62e5	10500	CG33259	1
48645	51550	49125	44370	5865	ImpE3	1
1.68e5	1.43e5	1.61e5	1.30e5	12815	CG33631	1
38960	29270	30020	20565	2560	Sap30	1
2.37e5	2.46e5	1.98e5	2.20e5	17440	CG14907 + Mettl4	1
2.90e5	2.75e5	2.46e5	2.72e5	22415	CG14907 + Mettl4	2
91125	1.11e5	1.89e5	1.94e5	8980	CG13917	1
1.46e5	1.66e5	1.50e5	1.75e5	12088	nht	1

3 neighbouring records already listed, quoted:
induced reporter light, run 1, well a	induced reporter light, run 1, well b	control promoter light, run 1, well a	control promoter light, run 1, well b	uninduced reporter light, run 1, well a	target gene	reagent no.
38960	29270	30020	20565	2560	Sap30	1
2.37e5	2.46e5	1.98e5	2.20e5	17440	CG14907 + Mettl4	1
2.90e5	2.75e5	2.46e5	2.72e5	22415	CG14907 + Mettl4	2

The results go on.
induced reporter light, run 1, well a	induced reporter light, run 1, well b	control promoter light, run 1, well a	control promoter light, run 1, well b	uninduced reporter light, run 1, well a	target gene	reagent no.
1.70e5	1.38e5	2.50e5	2.03e5	14295	TwdlD	1
1.95e5	1.55e5	1.98e5	1.70e5	13378	CG30271	1
1.15e5	1.16e5	63810	75190	7620	Serinc	1
1.39e5	1.28e5	1.66e5	1.56e5	11650	Men-b	1
82125	99790	1.42e5	1.73e5	4675	hfp	1
1.11e5	1.06e5	1.28e5	1.89e5	4800	hfp	2
2.02e5	2.01e5	3.88e5	3.14e5	15230	orion	1
1.82e5	1.92e5	2.71e5	2.89e5	11635	orion	2
1.11e5	1.04e5	1.34e5	90850	4435	Rpn12	1
91900	83615	1.37e5	1.56e5	7410	spz5	1
81585	93345	1.22e5	93330	9032	HPS4	1
90795	75020	80230	65065	4630	CG18577	1
1.79e5	1.75e5	2.15e5	2.43e5	16085	Miro	1
1.06e5	90835	1.20e5	1.27e5	7595	mRpL45	1
1.94e5	1.80e5	2.48e5	1.94e5	10515	ppk26	1
1.34e5 (active)	1.14e5	1.98e5	1.69e5	9160	CG8562	1
4.09e5 (active)	3.58e5	2.57e5	2.16e5	20630	CG7099	1
2.35e5	2.06e5	1.98e5	2.35e5	16585	CG9483	1
62045	54495	83755	98760	6860	CG3638	1
1.87e5	1.77e5	2.29e5	2.12e5	14805	CG31219	1
1.68e5	1.54e5	2.01e5	1.78e5	5885	CG13727	1
1.15e5	1.17e5	1.90e5	1.83e5	10785	Diedel	1
1.53e5	1.61e5	2.08e5	1.99e5	13220	CG14354	1
87335	97170	84795	1.23e5	13140	CG13001	1
